This passage reports 5-FU-induced apoptosis results from patent US20090099062A1 (priority 2007, published 2009).

The test system of this data set is SW620 cells. As to conditions: SW620, in the presence of pyrvinium.

Structures are written as SMILES.

`Cc1cc(/C=C/c2ccc3cc(N(C)C)ccc3[n+]2C)c(C)n1-c1ccccc1` [pyrvinium, pyrvinium pamoate]: the 5-FU-induced apoptosis entry was “greatly enhanced”.
